{"sequences": {"note": "By UniProt entry, the sequences of proteins in these tests, tags left out. Where a name states a change or a piece, a line headed by the entry shows the natural chain unless it says otherwise.", "UniProt Q96RP9": "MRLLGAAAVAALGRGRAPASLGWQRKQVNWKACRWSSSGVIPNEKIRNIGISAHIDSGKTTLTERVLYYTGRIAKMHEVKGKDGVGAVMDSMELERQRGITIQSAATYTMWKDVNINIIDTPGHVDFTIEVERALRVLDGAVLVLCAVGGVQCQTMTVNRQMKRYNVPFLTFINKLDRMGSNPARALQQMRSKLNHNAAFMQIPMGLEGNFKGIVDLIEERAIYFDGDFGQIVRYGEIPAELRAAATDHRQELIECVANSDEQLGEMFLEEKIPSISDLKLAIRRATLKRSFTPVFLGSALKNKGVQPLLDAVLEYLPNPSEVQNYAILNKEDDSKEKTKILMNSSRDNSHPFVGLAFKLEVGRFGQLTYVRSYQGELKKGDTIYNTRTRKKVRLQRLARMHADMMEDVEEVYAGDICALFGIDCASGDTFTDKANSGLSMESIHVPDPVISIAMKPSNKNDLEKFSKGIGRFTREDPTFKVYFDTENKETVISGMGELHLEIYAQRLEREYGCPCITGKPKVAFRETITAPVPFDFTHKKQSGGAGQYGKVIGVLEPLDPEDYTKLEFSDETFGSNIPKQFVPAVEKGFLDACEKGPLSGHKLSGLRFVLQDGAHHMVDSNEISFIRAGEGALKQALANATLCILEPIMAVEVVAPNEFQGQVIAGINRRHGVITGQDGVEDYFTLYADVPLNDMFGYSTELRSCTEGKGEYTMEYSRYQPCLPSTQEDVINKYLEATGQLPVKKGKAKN", "UniProt Q96H35": "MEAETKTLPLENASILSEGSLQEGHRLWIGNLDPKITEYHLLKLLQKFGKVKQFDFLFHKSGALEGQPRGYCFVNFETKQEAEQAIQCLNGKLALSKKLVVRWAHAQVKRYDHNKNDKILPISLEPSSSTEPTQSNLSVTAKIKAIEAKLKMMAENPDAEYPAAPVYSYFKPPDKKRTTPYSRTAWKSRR", "UniProt Q96KQ4": "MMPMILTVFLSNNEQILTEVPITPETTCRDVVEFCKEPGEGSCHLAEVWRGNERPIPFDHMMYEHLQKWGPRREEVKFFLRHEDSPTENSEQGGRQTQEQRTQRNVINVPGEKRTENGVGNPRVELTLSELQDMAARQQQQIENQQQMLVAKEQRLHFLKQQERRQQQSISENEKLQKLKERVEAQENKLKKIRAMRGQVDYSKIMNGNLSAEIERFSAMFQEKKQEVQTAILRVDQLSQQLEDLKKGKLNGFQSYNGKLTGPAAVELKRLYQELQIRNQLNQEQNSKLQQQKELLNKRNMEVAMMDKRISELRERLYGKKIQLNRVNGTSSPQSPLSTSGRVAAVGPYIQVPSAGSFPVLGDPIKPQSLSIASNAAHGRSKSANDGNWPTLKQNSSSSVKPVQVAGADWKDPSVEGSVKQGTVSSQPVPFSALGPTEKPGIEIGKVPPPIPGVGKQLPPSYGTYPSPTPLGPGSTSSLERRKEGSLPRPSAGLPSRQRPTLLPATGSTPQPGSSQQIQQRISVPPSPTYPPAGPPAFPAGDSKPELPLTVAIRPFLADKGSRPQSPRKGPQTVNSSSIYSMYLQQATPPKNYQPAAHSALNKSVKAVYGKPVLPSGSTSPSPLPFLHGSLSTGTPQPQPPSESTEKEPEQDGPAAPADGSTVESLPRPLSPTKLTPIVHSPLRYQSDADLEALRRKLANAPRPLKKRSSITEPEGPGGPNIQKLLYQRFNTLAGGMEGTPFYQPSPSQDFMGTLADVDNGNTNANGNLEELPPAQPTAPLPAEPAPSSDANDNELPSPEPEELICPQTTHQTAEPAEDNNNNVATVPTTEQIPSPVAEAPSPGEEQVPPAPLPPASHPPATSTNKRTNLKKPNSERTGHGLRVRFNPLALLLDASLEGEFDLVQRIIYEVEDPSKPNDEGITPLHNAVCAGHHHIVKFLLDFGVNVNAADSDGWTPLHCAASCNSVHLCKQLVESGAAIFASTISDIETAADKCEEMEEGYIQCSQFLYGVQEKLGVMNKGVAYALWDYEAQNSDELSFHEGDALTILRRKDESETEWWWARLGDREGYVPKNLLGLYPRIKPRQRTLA", "UniProt Q96RF0": "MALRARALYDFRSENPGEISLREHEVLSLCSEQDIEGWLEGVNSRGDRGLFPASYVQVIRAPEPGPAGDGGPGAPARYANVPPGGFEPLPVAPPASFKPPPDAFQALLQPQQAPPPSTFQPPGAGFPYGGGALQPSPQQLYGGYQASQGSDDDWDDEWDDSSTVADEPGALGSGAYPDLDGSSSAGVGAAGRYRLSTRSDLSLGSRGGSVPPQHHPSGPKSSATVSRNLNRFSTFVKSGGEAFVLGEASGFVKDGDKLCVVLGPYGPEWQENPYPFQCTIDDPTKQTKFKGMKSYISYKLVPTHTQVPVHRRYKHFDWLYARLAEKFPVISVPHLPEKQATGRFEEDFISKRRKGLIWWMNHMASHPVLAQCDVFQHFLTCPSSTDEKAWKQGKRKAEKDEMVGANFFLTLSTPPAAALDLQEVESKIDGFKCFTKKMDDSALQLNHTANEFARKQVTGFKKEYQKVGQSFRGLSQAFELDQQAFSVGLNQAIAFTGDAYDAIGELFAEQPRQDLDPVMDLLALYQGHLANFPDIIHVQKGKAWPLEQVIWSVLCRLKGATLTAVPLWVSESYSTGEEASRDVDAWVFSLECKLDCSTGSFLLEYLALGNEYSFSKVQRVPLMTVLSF", "UniProt Q96KN8": "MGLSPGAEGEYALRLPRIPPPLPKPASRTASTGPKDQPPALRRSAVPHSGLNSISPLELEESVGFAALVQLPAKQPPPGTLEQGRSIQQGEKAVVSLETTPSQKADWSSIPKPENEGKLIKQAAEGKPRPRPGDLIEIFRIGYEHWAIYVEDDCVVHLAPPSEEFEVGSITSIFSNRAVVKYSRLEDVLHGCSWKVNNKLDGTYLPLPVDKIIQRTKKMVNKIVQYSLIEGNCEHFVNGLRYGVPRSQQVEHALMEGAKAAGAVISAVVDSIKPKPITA", "UniProt Q96JK2, whole entry": "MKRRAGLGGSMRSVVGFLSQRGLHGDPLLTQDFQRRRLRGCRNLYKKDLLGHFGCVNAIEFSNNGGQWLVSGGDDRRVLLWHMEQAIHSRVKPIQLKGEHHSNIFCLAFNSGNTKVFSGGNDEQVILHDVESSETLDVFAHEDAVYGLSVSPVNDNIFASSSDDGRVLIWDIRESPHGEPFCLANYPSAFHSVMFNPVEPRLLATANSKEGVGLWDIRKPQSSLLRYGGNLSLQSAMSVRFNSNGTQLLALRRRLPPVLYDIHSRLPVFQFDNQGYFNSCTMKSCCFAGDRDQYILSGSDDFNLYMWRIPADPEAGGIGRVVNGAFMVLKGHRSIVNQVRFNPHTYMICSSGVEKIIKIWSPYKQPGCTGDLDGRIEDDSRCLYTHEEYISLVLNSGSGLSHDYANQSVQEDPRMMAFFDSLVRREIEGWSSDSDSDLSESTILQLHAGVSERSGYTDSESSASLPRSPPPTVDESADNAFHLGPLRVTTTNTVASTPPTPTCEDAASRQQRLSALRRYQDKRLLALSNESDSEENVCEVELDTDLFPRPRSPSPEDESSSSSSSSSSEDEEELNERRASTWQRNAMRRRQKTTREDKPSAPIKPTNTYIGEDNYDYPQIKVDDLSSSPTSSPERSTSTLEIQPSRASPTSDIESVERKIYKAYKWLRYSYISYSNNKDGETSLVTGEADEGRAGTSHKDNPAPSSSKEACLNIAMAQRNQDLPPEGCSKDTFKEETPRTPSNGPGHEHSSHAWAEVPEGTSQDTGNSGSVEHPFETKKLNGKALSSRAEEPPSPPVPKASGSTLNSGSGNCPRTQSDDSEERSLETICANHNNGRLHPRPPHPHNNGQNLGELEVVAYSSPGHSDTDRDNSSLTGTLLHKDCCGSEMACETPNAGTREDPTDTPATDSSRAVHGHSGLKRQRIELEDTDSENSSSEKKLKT", "UniProt Q96HZ4": "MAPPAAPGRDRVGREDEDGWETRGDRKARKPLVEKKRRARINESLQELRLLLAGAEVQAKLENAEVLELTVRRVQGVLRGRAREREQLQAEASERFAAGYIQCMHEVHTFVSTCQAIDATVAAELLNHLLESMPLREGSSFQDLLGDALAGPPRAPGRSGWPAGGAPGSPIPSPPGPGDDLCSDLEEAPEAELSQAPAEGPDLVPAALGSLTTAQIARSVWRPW", "UniProt Q96FB5": "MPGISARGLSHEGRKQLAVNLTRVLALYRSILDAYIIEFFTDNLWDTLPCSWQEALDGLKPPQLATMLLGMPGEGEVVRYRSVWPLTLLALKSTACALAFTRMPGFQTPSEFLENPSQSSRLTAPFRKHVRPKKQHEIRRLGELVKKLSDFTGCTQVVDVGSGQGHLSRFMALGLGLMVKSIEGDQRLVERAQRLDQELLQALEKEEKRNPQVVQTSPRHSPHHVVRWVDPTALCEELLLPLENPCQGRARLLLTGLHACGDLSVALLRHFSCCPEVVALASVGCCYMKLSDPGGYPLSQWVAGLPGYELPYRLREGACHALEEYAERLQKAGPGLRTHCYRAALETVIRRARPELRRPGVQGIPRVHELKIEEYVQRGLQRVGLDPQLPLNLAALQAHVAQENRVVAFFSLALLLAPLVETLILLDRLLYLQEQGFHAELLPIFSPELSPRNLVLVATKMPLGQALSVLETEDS", "UniProt Q96PC5": "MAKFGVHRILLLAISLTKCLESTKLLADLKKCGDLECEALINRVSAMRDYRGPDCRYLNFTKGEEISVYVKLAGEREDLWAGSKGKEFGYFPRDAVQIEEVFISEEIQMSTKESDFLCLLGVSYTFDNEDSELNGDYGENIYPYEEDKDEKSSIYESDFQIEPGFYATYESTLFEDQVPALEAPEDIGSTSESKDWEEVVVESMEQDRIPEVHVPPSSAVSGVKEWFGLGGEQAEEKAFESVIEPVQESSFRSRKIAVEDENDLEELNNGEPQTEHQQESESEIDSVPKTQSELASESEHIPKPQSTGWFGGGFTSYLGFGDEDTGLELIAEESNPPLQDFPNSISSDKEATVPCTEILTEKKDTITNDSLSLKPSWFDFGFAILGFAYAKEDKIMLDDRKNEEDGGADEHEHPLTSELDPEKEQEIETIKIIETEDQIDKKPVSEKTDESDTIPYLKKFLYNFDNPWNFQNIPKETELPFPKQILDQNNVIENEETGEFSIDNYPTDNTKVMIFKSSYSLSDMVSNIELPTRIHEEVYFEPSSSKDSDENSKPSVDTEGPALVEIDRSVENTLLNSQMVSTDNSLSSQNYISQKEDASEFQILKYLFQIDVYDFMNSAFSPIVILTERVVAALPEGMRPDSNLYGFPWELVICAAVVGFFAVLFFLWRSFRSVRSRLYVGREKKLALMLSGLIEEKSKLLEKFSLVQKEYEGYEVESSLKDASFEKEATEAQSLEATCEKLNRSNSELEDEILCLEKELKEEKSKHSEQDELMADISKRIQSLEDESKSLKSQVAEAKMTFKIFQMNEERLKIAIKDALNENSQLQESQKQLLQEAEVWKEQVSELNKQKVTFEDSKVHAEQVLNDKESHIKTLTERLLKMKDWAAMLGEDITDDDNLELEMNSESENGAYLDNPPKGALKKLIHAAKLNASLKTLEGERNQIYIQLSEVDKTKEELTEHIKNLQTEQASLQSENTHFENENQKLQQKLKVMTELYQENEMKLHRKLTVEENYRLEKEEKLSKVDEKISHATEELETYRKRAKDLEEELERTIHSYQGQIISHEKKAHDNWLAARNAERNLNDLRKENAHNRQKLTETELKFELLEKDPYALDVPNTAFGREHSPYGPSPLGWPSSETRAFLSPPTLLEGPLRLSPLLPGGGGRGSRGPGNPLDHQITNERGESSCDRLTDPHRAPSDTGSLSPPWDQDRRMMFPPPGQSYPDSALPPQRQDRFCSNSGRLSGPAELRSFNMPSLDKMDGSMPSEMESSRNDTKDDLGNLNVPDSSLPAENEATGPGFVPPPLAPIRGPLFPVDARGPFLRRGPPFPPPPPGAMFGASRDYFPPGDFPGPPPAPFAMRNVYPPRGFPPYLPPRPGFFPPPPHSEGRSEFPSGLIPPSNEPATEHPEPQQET"}, "source": "the supplement of paper PMC12819154", "about": "“High-throughput peptide-centric local stability assay extends protein–ligand identification to membrane proteins, tissues and bacteria” (Nature Structural & Molecular Biology, 2025)", "note": "The list shows a part of the results. Most values lie at the level of the controls, where differences are scatter."}
{"compound": "Cc1nc(Nc2ncc(C(=O)Nc3c(C)cccc3Cl)s2)cc(N2CCN(CCO)CC2)n1 [dasatinib]", "assay": "log2 fold change of tryptic peptide abundance, ligand vs vehicle (limited proteolysis) (log2 ratio); higher = more trypsin-susceptible (destabilized)", "conditions": "ligand concentration: 5 uM; sample: K562 cleared lysate"}
{"target": "GFM1 (peptide sequence: DNSHPFVGLAFK, peptide start residue: 348) (UniProt Q96RP9)", "log2 fold change": 0.358}
{"target": "RBM18 (peptide sequence: QFDFLFHK, peptide start residue: 53) (UniProt Q96H35)", "log2 fold change": -0.273}
{"target": "UniProt Q96KQ4 (peptide sequence: NLLGLYPR, peptide start residue: 1112)", "log2 fold change": -0.0551}
{"target": "SNX18 (peptide sequence: GGSVPPQHHPSGPK, peptide start residue: 207) (UniProt Q96RF0)", "log2 fold change": 0.275}
{"target": "UniProt Q96KN8 (peptide sequence: PASRTASTGPK, peptide start residue: 25)", "log2 fold change": -0.0128}
{"target": "DCAF5 (peptide sequence: AVHGHSGLKR, peptide start residue: 912) (UniProt Q96JK2)", "log2 fold change": -0.274}
{"target": "UniProt Q96HZ4 (peptide sequence: VGREDEDGWETR, peptide start residue: 12)", "log2 fold change": 0.531}
{"target": "SNX27 (peptide sequence: SESGYGFNVR, peptide start residue: 49) (UniProt Q96L92)", "log2 fold change": -0.226}
{"target": "UniProt Q96FB5 (peptide sequence: KLSDFTGCTQVVDVGSGQGHLSR, peptide start residue: 147)", "log2 fold change": -0.159}
{"target": "UniProt Q96JM3 (peptide sequence: SPPASPESWK, peptide start residue: 382)", "log2 fold change": -0.3}
{"target": "UniProt Q96PC5 (peptide sequence: IFQMNEER, peptide start residue: 804)", "log2 fold change": -0.486}
